# Cell number after 72 h of treatment

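Human melanoma cell lines in 1,536-well plates were treated with two drugs together for 72 h, then fixed, stained and imaged. Each value is the count of nuclei relative to DMSO-treated wells, in %, so that 100 equals the control. Every drug was used at one fixed concentration, the lower of two screened (a fifth of the higher). The file gives one value for each pair and line, without errors, so small differences may be noise.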 This is part of the screen, not chosen by result. An entry leaves out what has no value listed here. A dash means that no value is listed here.

Drugs:
FH535: Cc1cc([N+](=O)[O-])ccc1NS(=O)(=O)c1cc(Cl)ccc1Cl at 1 µM
GW0742: Cc1cc(SCc2sc(-c3ccc(C(F)(F)F)c(F)c3)nc2C)ccc1OCC(=O)O at 2 µM
sorafenib: CNC(=O)c1cc(Oc2ccc(NC(=O)Nc3ccc(Cl)c(C(F)(F)F)c3)cc2)ccn1 at 0.4 µM
GW2580: COc1ccc(COc2ccc(Cc3cnc(N)nc3N)cc2OC)cc1 at 1 µM
TCS401: O=C(O)C(=O)Nc1sc2c(c1C(=O)O)CCNC2 at 1.67 µM
enzastaurin: Cn1cc(C2=C(c3cn(C4CCN(Cc5ccccn5)CC4)c4ccccc34)C(=O)NC2=O)c2ccccc21 at 0.8 µM
Src-I1: COc1cc2ncnc(Nc3ccc(Oc4ccccc4)cc3)c2cc1OC at 2 µM
T0901317: O=S(=O)(c1ccccc1)N(CC(F)(F)F)c1ccc(C(O)(C(F)(F)F)C(F)(F)F)cc1 at 1.4 µM
GW441756: Cn1cc(/C=C2\C(=O)Nc3cccnc32)c2ccccc21 at 0.4 µM

| Pair | 501mel | A2058 | A101D | C32 | A375 |
|---|---|---|---|---|---|
| FH535 + GW2580 | 108 | 104 | 94.8 | 102 | 95.5 |
| TCS401 + GW441756 | 101 | 99.5 | 93.6 | 88.8 | 102 |
| T0901317 + enzastaurin | 95.0 | 92.9 | 102 | 91.3 | - |
| FH535 + sorafenib | 103 | 93.8 | 72.5 | 92.2 | - |
| sorafenib + GW0742 | 101 | 112 | 95.2 | 105 | - |
| GW2580 + Src-I1 | 85.4 | 104 | 105 | 123 | 112 |
| GW441756 + T0901317 | 75.1 | 101 | 102 | 99.5 | 108 |
| Src-I1 + enzastaurin | 90.0 | 111 | 92.6 | 134 | - |
| T0901317 + sorafenib | 100 | 98.8 | 104 | 83.1 | - |
| sorafenib + TCS401 | 84.7 | 111 | 96.9 | 96.6 | - |
| T0901317 + TCS401 | 80.8 | 109 | 110 | 113 | 91.9 |
| Src-I1 + GW441756 | 103 | 99.4 | 88.5 | 88.4 | 94.5 |
| enzastaurin + TCS401 | 113 | 85.0 | 98.4 | 105 | - |
| FH535 + Src-I1 | 77.0 | 97.8 | 95.2 | 106 | 103 |
| TCS401 + GW2580 | 91.0 | 101 | 91.8 | 92.9 | 94.7 |
| TCS401 + Src-I1 | 99.1 | 102 | 102 | 105 | 127 |
| GW2580 + GW441756 | 96.1 | 103 | 108 | 87.5 | 97.8 |
| T0901317 + Src-I1 | 93.2 | 103 | 107 | 90.8 | 93.9 |
| GW0742 + enzastaurin | 84.4 | 105 | 93.4 | 100 | - |
| enzastaurin + FH535 | - | 88.8 | 76.2 | 103 | - |
| sorafenib + GW2580 | 67.4 | 94.8 | 98.9 | 104 | - |
| enzastaurin + GW2580 | 94.9 | 106 | 85.4 | 118 | - |

For reference, 2 entries once more:

* TCS401 + Src-I1 : 501mel: 99.1; A2058: 102; A101D: 102; C32: 105; A375: 127
* T0901317 + TCS401 : 501mel: 80.8; A2058: 109; A101D: 110; C32: 113; A375: 91.9

From a melanoma drug combination screen (doi:10.1371/journal.pone.0140310); values rounded.